Experimental data from article PMC9551036, “A selective and orally bioavailable VHL-recruiting PROTAC achieves SMARCA2 degradation in vivo” (Nature Communications, 2022).
Where “and” joins values, the source holds several entries; their conditions need not be identical. Equal entries are not always repeated. The source gives many values for each of these; only a part stands here.

The chains behind the UniProt entries cited, without tags or fusion partners.
UniProt P51531, whole entry: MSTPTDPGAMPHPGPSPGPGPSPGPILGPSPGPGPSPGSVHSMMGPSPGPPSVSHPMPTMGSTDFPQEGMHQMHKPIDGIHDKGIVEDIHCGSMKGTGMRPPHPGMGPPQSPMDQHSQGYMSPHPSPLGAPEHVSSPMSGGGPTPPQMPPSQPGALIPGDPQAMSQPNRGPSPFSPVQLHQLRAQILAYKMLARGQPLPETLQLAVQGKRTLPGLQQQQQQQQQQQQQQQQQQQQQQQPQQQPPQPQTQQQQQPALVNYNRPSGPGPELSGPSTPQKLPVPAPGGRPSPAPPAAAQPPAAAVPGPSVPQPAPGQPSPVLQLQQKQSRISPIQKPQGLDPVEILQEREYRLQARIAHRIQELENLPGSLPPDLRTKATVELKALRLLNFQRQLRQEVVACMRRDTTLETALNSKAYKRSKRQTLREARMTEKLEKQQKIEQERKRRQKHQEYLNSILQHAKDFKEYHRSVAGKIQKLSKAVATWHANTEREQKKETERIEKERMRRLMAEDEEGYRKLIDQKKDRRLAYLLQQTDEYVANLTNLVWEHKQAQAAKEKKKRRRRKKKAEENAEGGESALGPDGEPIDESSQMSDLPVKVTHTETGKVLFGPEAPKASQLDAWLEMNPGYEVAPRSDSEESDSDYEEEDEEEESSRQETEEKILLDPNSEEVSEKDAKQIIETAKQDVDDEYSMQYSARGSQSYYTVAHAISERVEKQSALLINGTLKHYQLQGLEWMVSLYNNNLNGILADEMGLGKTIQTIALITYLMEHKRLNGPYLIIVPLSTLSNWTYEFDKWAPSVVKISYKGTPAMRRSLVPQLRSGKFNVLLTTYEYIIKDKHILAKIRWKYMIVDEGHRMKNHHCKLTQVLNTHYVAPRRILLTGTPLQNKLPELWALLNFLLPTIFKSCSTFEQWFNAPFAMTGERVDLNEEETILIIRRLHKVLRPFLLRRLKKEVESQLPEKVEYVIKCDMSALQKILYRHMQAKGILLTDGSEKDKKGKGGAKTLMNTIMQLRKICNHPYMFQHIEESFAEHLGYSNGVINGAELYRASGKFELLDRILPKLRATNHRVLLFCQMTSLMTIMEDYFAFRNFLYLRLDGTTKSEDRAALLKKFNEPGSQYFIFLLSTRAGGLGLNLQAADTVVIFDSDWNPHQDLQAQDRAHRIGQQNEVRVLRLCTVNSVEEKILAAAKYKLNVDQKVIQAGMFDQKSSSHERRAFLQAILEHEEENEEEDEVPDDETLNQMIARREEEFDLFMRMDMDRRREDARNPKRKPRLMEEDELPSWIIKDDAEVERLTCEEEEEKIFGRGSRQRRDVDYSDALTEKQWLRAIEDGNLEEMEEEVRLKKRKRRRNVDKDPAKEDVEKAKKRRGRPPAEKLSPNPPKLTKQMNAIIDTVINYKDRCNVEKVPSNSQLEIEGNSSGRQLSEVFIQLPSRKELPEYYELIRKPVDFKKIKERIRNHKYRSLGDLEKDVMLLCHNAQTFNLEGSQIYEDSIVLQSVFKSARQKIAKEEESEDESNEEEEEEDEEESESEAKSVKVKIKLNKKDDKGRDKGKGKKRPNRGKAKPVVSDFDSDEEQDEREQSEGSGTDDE

What was measured:
SMARCA2 [1] = target: T1, SMARCA2 (Homo sapiens, UniProt P51531); test: SMARCA2 capillary electrophoresis protein assay in RKO cells; format: cell-based; set-up: endogenous in cells; host or cells: RKO, NCI-H1568, A549, HCT116, LU99, HCC-364, HCT-15, HCC4006, SK-N-AS
Protocol: 130,000–200,000 cells were seeded in 24-well plates and incubated until settled down or overnight. Compounds were dissolved in DMSO and added to cells in indicated concentrations using a digital dispenser following an optional media change. […] For SMARCA2/4 half-life determination, 150,000 or 200,000 cells were seeded in 24-well plates. […] For SMARCA2/4 re-synthesis measurements, 200,000 cells were seeded in 24-well plates. […] Medium was removed, cells were washed with PBS and lysed with 80 µl Lysis Buffer (MSD Tris Lysis Buffer (#R60TX-2) + Halt Inhibitor Cocktail (100x) + Benzonase 0.5 µL/ml). Samples were frozen at −80 °C and thawed at room temperature before use. Samples were transferred to a V-bottom plate and insoluble debris was pelleted by centrifugation for 5 min at maximum speed. The supernatant was transferred to a fresh plate. Master Mix and Ladder were prepared according to manufacturer’s instructions for 12–230 kDa Wes Separation Module, 8 × 25 capillary cartridges, Protein Simple #SM-W004 with Anti-Rabbit Detection Module for Wes, Peggy Sue or Sally Sue, Protein Simple #DM-001. 4.8 µl lysate were mixed with 1.2 µl Master Mix to achieve a protein concentration of ~0.5 µg/µl. […] Wes plates were prepared and run according to manufacturer’s instructions. Proteins were quantified with accompanying Compass Software. SMARCA2/4 protein levels were normalised to GAPDH. […] Where applicable, curves were fitted using a 4-parametric logistic model.

SMARCA2 [2] = target: T1, SMARCA2; test: SMARCA2 capillary electrophoresis protein assay in other cell lines (A549, NCI-H1568, HCT116, LU99, HCC-364, HCT-15, HCC4006, SK-N-AS); format: cell-based; set-up: endogenous in cells; host or cells: RKO, NCI-H1568, A549, HCT116, LU99, HCC-364, HCT-15, HCC4006, SK-N-AS
Protocol: 130,000–200,000 cells were seeded in 24-well plates and incubated until settled down or overnight. Compounds were dissolved in DMSO and added to cells in indicated concentrations using a digital dispenser following an optional media change. Cells were incubated for 4 or 18 h as indicated. For SMARCA2/4 half-life determination, 150,000 or 200,000 cells were seeded in 24-well plates. The next day, 50 µg/ml cycloheximide (Sigma) was added and cells were incubated for 1–24 h. For SMARCA2/4 re-synthesis measurements, 200,000 cells were seeded in 24-well plates. The next day, 100 nM compound 6 was added for 4 h to degrade SMARCA2/4, and a sample was taken as baseline for normalisation. To allow re-synthesis, a VHL binder (compound 32, 25 or 50 µM) was then added for 3 or 24 h. Medium was removed, cells were washed with PBS and lysed with 80 µl Lysis Buffer (MSD Tris Lysis Buffer (#R60TX-2) + Halt Inhibitor Cocktail (100x) + Benzonase 0.5 µL/ml). Samples were frozen at −80 °C and thawed at room temperature before use. Samples were transferred to a V-bottom plate and insoluble debris was pelleted by centrifugation for 5 min at maximum speed. The supernatant was transferred to a fresh plate. Master Mix and Ladder were prepared according to manufacturer’s instructions for 12–230 kDa Wes Separation Module, 8 × 25 capillary cartridges, Protein Simple #SM-W004 with Anti-Rabbit Detection Module for Wes, Peggy Sue or Sally Sue, Protein Simple #DM-001. 4.8 µl lysate were mixed with 1.2 µl Master Mix to achieve a protein concentration of ~0.5 µg/µl. Antibodies were diluted in Antibody Diluent II (SMARCA2 Sigma #HPA029981 RRID:AB_10602406 1:25–100, SMARCA4 Cell Signalling #49360 clone D1Q7F RRID:AB_2728743 1:15–120 or Abcam #ab110641 clone EPNCIR111A RRID:AB_10861578 1:60, GAPDH Abcam #ab9485 RRID:AB_307275 1:250). Wes plates were prepared and run according to manufacturer’s instructions. Proteins were quantified with accompanying Compass Software. SMARCA2/4 protein levels were normalised to GAPDH. […] Where applicable, curves were fitted using a 4-parametric logistic model.

Cc1ncsc1-c1ccc(C(CCC(C)CCN2CCC(c3ccc4c(c3)n(C3CCCC3)c3nc(=O)c5c(Br)cccc5n43)CC2)NC(=O)C2CC(O)CN2C(=O)C(NC(=O)C2(F)CC2)C(C)(C)C)cc1 (stereo not drawn) [ACBI2]
% protein remaining (SMARCA2 [1]; SM2, conc 9.54e-12 mol/l): 151.94% and 131.079%
% protein remaining (SMARCA2 [1]; SM2, conc 3.81e-11 mol/l): 163.034% and 152.159%
% protein remaining (SMARCA2 [1]; SM2, conc 1.53e-10 mol/l): 191.351% and 159.697%
% protein remaining (SMARCA2 [1]; SM2, conc 6.1e-10 mol/l): 151.794% and 119.537%
% protein remaining (SMARCA2 [1]; SM2, conc 2.44e-9 mol/l): 111.743% and 88.6031%
% protein remaining (SMARCA2 [1]; SM2, conc 9.77e-9 mol/l): 64.9972% and 67.4221%
% protein remaining (SMARCA2 [1]; SM2, conc 3.91e-8 mol/l): 39.7588% and 46.4282%
% protein remaining (SMARCA2 [1]; SM2, conc 1.56e-7 mol/l): 20.2631% and 20.7399%
% protein remaining (SMARCA2 [1]; SM2, conc 6.25e-7 mol/l): 22.8931% and 23.7185%
% protein remaining (SMARCA2 [1]; SM2, conc 2.5e-6 mol/l): 18.9321% and 23.8685%
% protein remaining (SMARCA2 [2]; HCC4006_SM2, log10[concentration (mol/l)] -8): 81.7716% and 108.051% and 75.827%
% protein remaining (SMARCA2 [2]; HCC4006_SM2, log10[concentration (mol/l)] -9): 125.243% and 159.212% and 103.466%
% protein remaining (SMARCA2 [2]; HCC4006_SM2, log10[concentration (mol/l)] -10): 118.279% and 101.876% and 108.932%
% protein remaining (SMARCA2 [2]; HCC-364_SM2, log10[concentration (mol/l)] -6): 1.845% and 2.699% and 10.7791%
% protein remaining (SMARCA2 [2]; HCC-364_SM2, log10[concentration (mol/l)] -8): 44.9697% and 32.5721% and 54.506%
% protein remaining (SMARCA2 [2]; HCC-364_SM2, log10[concentration (mol/l)] -9): 110.111% and 128.038%
% protein remaining (SMARCA2 [2]; HCT116, SM2, conc 9.54e-12 mol/l): 109.178% and 116.076%
% protein remaining (SMARCA2 [2]; HCT116, SM2, conc 3.81e-11 mol/l): 125.868% and 135.077%
% protein remaining (SMARCA2 [2]; HCT116, SM2, conc 1.53e-10 mol/l): 114.209% and 133.811%
% protein remaining (SMARCA2 [2]; HCT116, SM2, conc 6.1e-10 mol/l): 105.682% and 136.5%
% protein remaining (SMARCA2 [2]; HCT116, SM2, conc 2.44e-9 mol/l): 94.7271% and 126.956%
% protein remaining (SMARCA2 [2]; HCT116, SM2, conc 9.77e-9 mol/l): 85.6132% and 103.948%
% protein remaining (SMARCA2 [2]; HCT116, SM2, conc 3.91e-8 mol/l): 52.5707% and 61.6429%
% protein remaining (SMARCA2 [2]; HCT116, SM2, conc 1.56e-7 mol/l): 28.2623% and 33.3993%
% protein remaining (SMARCA2 [2]; HCT116, SM2, conc 6.25e-7 mol/l): 19.3606% and 22.8633%
% protein remaining (SMARCA2 [2]; HCT116, SM2, conc 2.5e-6 mol/l): 20.1635%
% protein remaining (SMARCA2 [2]; HCT116, SM2, conc 1e-5 mol/l): 30.0895%
% protein remaining (SMARCA2 [2]; HCT-15_SM2, log10[concentration (mol/l)] -6): 11.5726% and 11.5592% and 17.8109%
% protein remaining (SMARCA2 [2]; HCT-15_SM2, log10[concentration (mol/l)] -7): 67.4847% and 59.2301% and 69.1878%
% protein remaining (SMARCA2 [2]; HCT-15_SM2, log10[concentration (mol/l)] -8): 119.67% and 115.981% and 70.5009%
% protein remaining (SMARCA2 [2]; HCT-15_SM2, log10[concentration (mol/l)] -10): 123.272% and 136.831% and 90.4322%
% protein remaining (SMARCA2 [2]; LU99_SM2, log10[concentration (mol/l)] -6): 12.5582%
% protein remaining (SMARCA2 [2]; LU99_SM2, log10[concentration (mol/l)] -9): 104.244% and 93.8787% and 101.708% and 131.784% and 99.8989%
% protein remaining (SMARCA2 [2]; LU99_SM2, log10[concentration (mol/l)] -10): 107.625% and 126.821% and 111.971% and 126.034% and 118.711%
% protein remaining (SMARCA2 [2]; NCI-H1568, 4h, conc 3.1623e-9 mol/l): 61.9619%
% protein remaining (SMARCA2 [2]; SK-N-AS_SM2, log10[concentration (mol/l)] -6): 19.2564% and 22.1797%
% protein remaining (SMARCA2 [2]; SK-N-AS_SM2, log10[concentration (mol/l)] -8): 83.0566% and 115.308%
% protein remaining (SMARCA2 [2]; SK-N-AS_SM2, log10[concentration (mol/l)] -9): 135.175% and 115.217%
% protein remaining (SMARCA2 [2]; SK-N-AS_SM2, log10[concentration (mol/l)] -10): 110.512% and 93.3107%
